Here are results for 28 targets from the supplement of paper PMC10849652.

The chains behind the UniProt entries cited, without tags or fusion partners. Where a name states a change or a piece, a line headed by the entry shows the natural chain unless it says otherwise.
UniProt Q9BT43: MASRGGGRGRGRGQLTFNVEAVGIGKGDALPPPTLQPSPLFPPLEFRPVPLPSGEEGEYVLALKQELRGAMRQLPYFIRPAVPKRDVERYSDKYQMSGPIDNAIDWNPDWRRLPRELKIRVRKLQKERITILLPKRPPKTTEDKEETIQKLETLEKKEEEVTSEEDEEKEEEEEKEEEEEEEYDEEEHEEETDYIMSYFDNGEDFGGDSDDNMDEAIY
UniProt P51805: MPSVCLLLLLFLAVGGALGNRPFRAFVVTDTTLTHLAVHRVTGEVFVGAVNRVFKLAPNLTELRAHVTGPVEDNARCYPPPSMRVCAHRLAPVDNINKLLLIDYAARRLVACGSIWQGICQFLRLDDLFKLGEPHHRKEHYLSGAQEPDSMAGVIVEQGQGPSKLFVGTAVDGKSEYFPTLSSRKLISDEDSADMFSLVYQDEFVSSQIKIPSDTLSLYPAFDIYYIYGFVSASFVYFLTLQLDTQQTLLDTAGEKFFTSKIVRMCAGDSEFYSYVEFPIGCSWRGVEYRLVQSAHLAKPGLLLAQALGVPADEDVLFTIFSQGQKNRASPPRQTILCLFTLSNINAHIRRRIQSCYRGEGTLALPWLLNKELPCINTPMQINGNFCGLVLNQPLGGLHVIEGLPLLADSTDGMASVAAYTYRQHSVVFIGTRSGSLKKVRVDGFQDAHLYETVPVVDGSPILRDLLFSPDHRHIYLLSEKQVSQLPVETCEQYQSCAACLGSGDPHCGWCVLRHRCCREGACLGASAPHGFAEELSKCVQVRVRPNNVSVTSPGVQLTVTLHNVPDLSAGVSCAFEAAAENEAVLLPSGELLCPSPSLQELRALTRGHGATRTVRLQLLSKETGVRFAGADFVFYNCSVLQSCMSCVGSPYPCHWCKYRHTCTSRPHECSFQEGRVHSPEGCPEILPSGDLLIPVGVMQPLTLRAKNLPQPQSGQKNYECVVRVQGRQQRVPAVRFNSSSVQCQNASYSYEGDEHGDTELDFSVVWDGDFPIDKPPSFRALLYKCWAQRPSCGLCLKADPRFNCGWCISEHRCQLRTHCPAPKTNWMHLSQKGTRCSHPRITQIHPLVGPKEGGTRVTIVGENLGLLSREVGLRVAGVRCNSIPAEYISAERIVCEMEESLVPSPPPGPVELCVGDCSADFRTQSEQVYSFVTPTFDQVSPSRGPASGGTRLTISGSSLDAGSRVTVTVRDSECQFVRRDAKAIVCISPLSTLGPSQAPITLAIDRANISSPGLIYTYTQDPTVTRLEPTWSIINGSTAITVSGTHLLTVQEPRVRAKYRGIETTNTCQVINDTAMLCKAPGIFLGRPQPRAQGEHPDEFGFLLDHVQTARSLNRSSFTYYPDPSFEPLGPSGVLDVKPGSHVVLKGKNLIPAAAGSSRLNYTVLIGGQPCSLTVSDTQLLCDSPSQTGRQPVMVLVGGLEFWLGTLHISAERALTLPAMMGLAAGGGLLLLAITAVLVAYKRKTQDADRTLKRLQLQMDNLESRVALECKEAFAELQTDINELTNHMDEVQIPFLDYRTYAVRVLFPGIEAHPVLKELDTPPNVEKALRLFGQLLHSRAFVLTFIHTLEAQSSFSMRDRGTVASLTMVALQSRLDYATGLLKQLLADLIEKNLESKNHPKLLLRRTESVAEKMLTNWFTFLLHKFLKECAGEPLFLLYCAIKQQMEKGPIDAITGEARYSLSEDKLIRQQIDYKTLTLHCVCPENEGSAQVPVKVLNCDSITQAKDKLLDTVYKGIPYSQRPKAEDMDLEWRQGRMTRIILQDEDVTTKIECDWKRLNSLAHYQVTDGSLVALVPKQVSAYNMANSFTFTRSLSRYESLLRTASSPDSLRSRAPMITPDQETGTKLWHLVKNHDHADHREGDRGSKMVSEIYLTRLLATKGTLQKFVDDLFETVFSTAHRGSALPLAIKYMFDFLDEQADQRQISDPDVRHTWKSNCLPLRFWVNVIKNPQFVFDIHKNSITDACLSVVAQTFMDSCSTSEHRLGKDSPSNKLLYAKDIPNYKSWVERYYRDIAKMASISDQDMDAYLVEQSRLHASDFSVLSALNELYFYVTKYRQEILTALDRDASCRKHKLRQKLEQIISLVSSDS
UniProt P00747, whole entry, looked up: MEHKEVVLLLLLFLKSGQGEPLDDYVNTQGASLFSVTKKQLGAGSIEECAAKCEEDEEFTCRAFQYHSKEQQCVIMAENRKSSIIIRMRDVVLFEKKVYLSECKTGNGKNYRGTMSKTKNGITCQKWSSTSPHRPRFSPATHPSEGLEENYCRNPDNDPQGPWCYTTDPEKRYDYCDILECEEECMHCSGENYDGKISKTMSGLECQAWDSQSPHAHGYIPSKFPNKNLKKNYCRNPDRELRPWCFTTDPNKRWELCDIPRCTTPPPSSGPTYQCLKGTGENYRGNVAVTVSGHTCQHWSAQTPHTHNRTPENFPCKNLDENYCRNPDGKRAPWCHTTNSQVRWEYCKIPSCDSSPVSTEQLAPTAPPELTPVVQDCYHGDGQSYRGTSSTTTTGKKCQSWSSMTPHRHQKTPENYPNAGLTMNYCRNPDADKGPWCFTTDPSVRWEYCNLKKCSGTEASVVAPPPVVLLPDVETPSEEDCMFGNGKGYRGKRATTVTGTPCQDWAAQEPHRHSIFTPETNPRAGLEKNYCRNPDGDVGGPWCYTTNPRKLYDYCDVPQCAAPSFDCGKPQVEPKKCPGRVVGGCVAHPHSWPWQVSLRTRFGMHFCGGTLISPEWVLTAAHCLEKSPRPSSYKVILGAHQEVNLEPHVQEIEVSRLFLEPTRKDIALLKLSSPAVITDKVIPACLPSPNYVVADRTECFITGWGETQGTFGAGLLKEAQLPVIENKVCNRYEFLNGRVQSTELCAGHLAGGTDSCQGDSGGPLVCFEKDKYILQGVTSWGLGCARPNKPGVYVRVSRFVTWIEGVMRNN
UniProt Q13427: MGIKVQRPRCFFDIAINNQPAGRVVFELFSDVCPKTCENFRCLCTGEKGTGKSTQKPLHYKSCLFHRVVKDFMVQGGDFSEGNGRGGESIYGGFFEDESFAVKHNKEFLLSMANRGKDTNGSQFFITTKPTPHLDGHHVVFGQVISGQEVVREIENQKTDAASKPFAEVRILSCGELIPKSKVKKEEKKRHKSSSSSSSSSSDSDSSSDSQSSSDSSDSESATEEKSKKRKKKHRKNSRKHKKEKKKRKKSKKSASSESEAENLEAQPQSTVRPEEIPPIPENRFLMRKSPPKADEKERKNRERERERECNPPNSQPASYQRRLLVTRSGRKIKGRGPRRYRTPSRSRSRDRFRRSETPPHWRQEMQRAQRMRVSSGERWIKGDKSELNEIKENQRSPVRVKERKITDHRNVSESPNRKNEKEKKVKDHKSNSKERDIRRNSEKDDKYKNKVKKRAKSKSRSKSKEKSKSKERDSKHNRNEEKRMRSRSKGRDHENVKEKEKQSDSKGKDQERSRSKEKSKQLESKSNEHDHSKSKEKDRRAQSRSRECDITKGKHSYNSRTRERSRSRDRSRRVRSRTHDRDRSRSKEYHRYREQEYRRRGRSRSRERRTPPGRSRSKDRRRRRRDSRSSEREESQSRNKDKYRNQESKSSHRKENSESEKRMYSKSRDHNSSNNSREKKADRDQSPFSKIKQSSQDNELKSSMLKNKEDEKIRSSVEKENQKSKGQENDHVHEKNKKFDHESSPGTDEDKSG
UniProt Q8IY26: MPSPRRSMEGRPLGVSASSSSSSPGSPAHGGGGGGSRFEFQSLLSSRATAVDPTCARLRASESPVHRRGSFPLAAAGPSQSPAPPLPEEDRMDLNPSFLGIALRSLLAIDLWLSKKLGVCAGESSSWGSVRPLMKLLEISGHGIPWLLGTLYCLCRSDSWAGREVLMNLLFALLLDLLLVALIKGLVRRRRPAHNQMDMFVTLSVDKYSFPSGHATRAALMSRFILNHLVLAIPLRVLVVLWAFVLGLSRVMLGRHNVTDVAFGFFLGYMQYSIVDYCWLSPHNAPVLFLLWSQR
UniProt Q8NAT1: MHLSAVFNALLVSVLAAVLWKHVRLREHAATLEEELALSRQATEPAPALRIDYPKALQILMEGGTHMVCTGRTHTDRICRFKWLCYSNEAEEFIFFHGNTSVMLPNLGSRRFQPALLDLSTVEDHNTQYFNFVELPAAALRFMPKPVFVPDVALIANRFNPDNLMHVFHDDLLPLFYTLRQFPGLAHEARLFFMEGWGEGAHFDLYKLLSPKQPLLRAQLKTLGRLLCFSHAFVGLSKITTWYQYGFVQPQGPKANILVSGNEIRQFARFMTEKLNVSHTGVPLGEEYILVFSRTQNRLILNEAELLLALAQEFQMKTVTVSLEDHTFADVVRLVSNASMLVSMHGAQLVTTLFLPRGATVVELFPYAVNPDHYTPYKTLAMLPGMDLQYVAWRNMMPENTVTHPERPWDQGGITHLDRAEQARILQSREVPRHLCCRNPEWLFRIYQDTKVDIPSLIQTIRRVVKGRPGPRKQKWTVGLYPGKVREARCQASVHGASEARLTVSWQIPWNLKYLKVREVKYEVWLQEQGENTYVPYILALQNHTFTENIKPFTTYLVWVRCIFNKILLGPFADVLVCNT
UniProt Q9Y535: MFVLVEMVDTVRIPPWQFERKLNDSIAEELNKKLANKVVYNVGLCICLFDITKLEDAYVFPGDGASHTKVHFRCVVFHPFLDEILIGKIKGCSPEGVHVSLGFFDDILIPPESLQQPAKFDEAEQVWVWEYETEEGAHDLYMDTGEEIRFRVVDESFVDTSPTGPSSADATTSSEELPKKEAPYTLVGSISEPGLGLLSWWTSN
UniProt P05423: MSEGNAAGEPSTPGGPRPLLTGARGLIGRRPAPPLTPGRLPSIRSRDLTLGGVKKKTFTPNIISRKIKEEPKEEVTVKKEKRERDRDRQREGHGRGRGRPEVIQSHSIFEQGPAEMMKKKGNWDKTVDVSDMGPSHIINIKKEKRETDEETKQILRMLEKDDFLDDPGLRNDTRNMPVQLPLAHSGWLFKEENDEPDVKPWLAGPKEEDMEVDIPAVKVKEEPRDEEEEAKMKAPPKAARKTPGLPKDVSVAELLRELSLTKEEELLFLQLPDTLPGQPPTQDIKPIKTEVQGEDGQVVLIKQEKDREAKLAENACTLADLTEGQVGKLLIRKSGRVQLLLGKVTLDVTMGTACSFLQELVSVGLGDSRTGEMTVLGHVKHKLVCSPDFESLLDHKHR
UniProt Q15126: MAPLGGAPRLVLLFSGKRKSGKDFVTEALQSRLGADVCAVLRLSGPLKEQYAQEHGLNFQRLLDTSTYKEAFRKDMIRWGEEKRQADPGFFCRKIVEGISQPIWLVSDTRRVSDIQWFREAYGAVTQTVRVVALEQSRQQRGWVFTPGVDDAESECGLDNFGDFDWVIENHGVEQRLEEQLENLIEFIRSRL
UniProt O00592: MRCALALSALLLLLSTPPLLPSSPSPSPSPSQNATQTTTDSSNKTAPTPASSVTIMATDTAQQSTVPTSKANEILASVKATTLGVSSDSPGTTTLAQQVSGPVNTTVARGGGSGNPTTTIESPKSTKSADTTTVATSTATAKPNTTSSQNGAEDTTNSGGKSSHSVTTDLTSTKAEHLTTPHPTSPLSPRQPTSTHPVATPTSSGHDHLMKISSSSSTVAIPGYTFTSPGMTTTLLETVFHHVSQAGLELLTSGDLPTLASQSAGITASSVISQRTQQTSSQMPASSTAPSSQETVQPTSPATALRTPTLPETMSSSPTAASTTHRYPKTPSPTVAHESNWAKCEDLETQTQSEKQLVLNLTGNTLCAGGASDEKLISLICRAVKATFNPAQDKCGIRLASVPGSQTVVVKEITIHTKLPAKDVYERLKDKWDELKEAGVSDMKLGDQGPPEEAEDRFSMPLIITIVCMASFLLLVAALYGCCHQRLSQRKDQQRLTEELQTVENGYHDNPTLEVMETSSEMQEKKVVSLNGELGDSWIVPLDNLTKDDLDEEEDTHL
UniProt Q6T4P5: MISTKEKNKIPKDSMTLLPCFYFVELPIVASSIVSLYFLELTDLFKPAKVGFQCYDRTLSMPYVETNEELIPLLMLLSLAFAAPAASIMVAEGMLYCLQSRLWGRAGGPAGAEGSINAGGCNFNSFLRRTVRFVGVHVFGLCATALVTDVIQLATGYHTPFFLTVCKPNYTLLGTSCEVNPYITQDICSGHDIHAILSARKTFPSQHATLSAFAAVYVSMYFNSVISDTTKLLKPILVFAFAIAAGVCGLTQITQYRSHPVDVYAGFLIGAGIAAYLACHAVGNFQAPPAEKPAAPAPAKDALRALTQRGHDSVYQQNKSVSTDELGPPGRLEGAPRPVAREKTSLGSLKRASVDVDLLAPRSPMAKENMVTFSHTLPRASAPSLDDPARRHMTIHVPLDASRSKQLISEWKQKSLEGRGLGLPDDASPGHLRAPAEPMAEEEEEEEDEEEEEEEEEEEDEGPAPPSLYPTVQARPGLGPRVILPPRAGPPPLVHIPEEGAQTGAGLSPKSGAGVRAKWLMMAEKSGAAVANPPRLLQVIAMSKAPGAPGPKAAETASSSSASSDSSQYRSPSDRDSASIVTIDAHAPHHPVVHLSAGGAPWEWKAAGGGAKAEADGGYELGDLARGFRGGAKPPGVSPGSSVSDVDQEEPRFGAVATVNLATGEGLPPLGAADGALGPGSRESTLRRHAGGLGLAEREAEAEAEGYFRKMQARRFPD

The list shows a part of the results.

Compound in one experiment: CN(CCOC1=CC=C(C=C1)C[C@H]2C(=O)NC(=O)S2)C3=CC=CC=N3 (racemic) [rosiglitazone]
The experiment can be described thus: log2 fold change, soluble protein after heating vs DMSO (PISA); higher = thermal stabilisation; K562 cells, 10 uM, 30 min; active = over 0.2 and 3.5 SD of the protein, either way, in both replicates (recomputed). Summed up:
(§1)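 Soluble protein was defined as the supernatant after 21,000xg for 90 min. It came from K562 cells at 2×10^6 cells/mL given 10 μM compound for 30 min, heated in aliquots for 3 min across 48°C-58°C, pooled, and extracted in PBS with 0.5% NP-40 at 4°C, and was quantified by TMTpro 16plex LC-MS/MS with equalised channel sums. Thermal stability against control samples, from duplicates, is reported as log2 fold change.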
For the target POLR3GL (UniProt Q9BT43), the log2 fold change is inactive: -0.002. The same measure, in the same setting: the result for POT1 (UniProt Q9NUX5) reads inactive: 0.092; that for PLXNA3 (UniProt P51805), inactive: 0.202. Take POLE (UniProt Q07864): the log2 fold change was inactive: 0.13. Still for that read-out and setting: the same measure for PLG (UniProt P00747): inactive: -0.187; for PPIG (UniProt Q13427): inactive: -0.356; for POLQ (UniProt O75417): inactive: -0.008. Regarding PLPP6 (UniProt Q8IY26), the log2 fold change is inactive: 0.003. On the same count and under the same terms, the same measure for POM121C (UniProt A8CG34): inactive: -0.114; for POLR2F (UniProt P61218): inactive: 0.008.

As to PPM1B isoform 2 (UniProt O75688), the log2 fold change was inactive: 0.04. With POMGNT2 (UniProt Q8NAT1), the log2 fold change is inactive: -0.16. With POLR3H (UniProt Q9Y535), the log2 fold change was inactive: -0.002.

Compound in a further experiment: CN1C2=C(C3=C1C(=O)N(N=C3)CC4=CC(=CC=C4)N)SC(=C2)S(=O)C
Described as above. Put shortly:
as §1
As to POLRMT (UniProt O00411), the log2 fold change is inactive: 0.22.

As to POLR1B isoform 3 (UniProt Q9H9Y6), the log2 fold change is inactive: 0.245.

On to POLR3D (UniProt P05423), for which the log2 fold change was inactive: 0.61.

Turning to PNMT (UniProt P11086), the log2 fold change is inactive: -0.066. The same measure, in the same setting: the result for PLXNA3 (UniProt P51805) reads inactive: -0.052.

With PLK1 (UniProt P53350), the log2 fold change is inactive: -0.029. The same measure, in the same setting: the result for POMT1 (UniProt Q9Y6A1) reads inactive: 0.036; that for PLG (UniProt P00747), inactive: 0.21.

Take PPIG (UniProt Q13427): the log2 fold change is inactive: -0.028.

Turning to POLG, A0A3B3IS91, the log2 fold change is inactive: 0.011. Still for that read-out and setting: the result for PMVK (UniProt Q15126) reads inactive: 0.036; that for PLPP6 (UniProt Q8IY26), inactive: -0.025. Turning to POLR1E isoform 1 (UniProt Q9GZS1), the log2 fold change is inactive: 0.381. On the same count and under the same terms, the same measure for POLR2F (UniProt P61218): inactive: 0.049. Still for that read-out and setting: the same measure for POMGNT2 (UniProt Q8NAT1): inactive: -0.018; for PLEKHJ1 (UniProt Q9NW61): inactive: 0.214. For PM20D2 (UniProt Q8IYS1), the log2 fold change is inactive: -0.079. On the same count and under the same terms, the same measure for POLR3H (UniProt Q9Y535): inactive: -0.006.

Compound in the next experiment: CN1CCC(CNc2ccc3ncc(-c4cccc(OC(F)(F)F)c4)n3n2)CC1
The experiment is described as above. Summed up:
as §1
For PODXL (UniProt O00592), the log2 fold change was inactive: -0.259. POLR1B isoform 3 (UniProt Q9H9Y6): the log2 fold change is inactive: 0.028. For POLR3D (UniProt P05423), the log2 fold change was inactive: -0.035. The same measure, in the same setting: the result for PLXNA3 (UniProt P51805) reads inactive: -0.241; that for PLK1 (UniProt P53350), inactive: -0.068. Same read-out and setting: the same measure for POLE (UniProt Q07864): inactive: -0.283; for PLG (UniProt P00747): inactive: -0.029.

Consider POLQ (UniProt O75417), for which the log2 fold change is inactive: -0.161. On the same count and under the same terms, the same measure for PLSCR3 (UniProt Q9NRY6): inactive: 0.246; for PMVK (UniProt Q15126): inactive: 0.057; for PLPPR3 isoform 3 (UniProt Q6T4P5): inactive: 0.152. Still for that read-out and setting: the result for PLPP6 (UniProt Q8IY26) reads inactive: 0.155; that for POLR2F (UniProt P61218), inactive: 0.001. On to POMGNT2 (UniProt Q8NAT1), for which the log2 fold change was inactive: 0.175. On the same count and under the same terms, the result for POLR3H (UniProt Q9Y535) reads inactive: 0.019; that for POLE2 (UniProt P56282), inactive: 0.119.
